Structures are written as SMILES. Some of the results follow. The main result of the screen is listed elsewhere. These columns were measured beside it and carry no call. For part of these data: The list favours compounds with an active or inconclusive main result. Peptide text beside a SMILES is read from it.

These results are taken from PubChem BioAssay.

Test [1] in a line: PubChem AID 1586. Conditions: yeast two-hybrid polyglutamine protein interaction, reporter readout; measured here: averaged growth delta OD.
A short description of test [2]: enhancers of SMN2 over SMN1 splicing, cell-based, SMN2/SMN1 luciferase reporters (AID 1598). Conditions: SMN2 vs SMN1 luciferase splicing reporter cells, at 10 µM; SMN1 luciferase ratio: measured here: SMN1 luciferase reporter average; SMN2 luciferase ratio: measured here: SMN2 luciferase reporter average, stronger effect = higher value. In general terms: In a reporter assay the amount or activity of a reporter protein is the signal.

Test [3] can be described thus: protection against mutant huntingtin cytotoxicity, PC12 cells, LDH release (AID 1610). The settings on record: PC12 mutant huntingtin toxicity, final LDH at 4 uM, stronger effect = lower value. A general note: LDH leaks from cells whose membrane has failed.

As for `CCOC(=O)CCC(=O)O[C@H]1[C@H](O[C@@H]2[C@@H](C)[C@H](O[C@H]3C[C@@](C)(OC)[C@@H](O)[C@H](C)O3)[C@@H](C)C(=O)O[C@H](CC)[C@@](C)(O)[C@H](O)[C@@H](C)C(=O)[C@H](C)C[C@@]2(C)O)O[C@H](C)C[C@@H]1N(C)C`, in test [1], the signal change (36 h minus 0 h) turned out to be 0.199. Further, in test [2], the SMN1 luciferase ratio was 0.89 and the SMN2 luciferase ratio was found to be 0.93. For the same compound, the normalised LDH release in test [3] came to 0.751.

As for `CC(=O)N=c1sc(S(N)(=O)=O)nn1C`, the signal change (36 h minus 0 h) in test [1] is 0.0881. Also, in test [2], the SMN1 luciferase ratio worked out at 0.93 and the SMN2 luciferase ratio worked out at 0.85. Besides, the normalised LDH release in test [3] stood at 1.1.

Turning to `N=C(N)N`, the signal change (36 h minus 0 h) in test [1] was 0.161. In addition, in test [2], the SMN1 luciferase ratio amounted to 0.96 and the SMN2 luciferase ratio worked out at 0.98. The same compound showed a normalised LDH release in test [3] of 0.893.

`Nc1c2c(nc3ccccc13)CCCC2O` (configuration not stated) displayed a signal change (36 h minus 0 h) in test [1] of 0.189. For the same compound, in test [2], the SMN1 luciferase ratio was determined as 0.97 and the SMN2 luciferase ratio amounted to 1.02. In addition, the normalised LDH release in test [3] was 0.967.

As for `COc1ccc2c(c1)c(CC(=O)O)c(C)n2C(=O)c1ccc(Cl)cc1`, in test [1], the signal change (36 h minus 0 h) turned out to be 0.295. In addition, in test [2], the SMN1 luciferase ratio came out at 0.93 and the SMN2 luciferase ratio was found to be 0.86. Also, in test [3], the normalised LDH release turned out to be 1.04.

Consider `C/C=C(/C(=C/C)c1ccc(O)cc1)c1ccc(O)cc1`, for which the signal change (36 h minus 0 h) in test [1] was found to be 0.0503. For the same compound, in test [2], the SMN1 luciferase ratio stood at 0.92 and the SMN2 luciferase ratio worked out at 0.96. In addition, the normalised LDH release in test [3] amounted to 0.858.

In the case of `CC1=C(CC(=O)O)c2cc(F)ccc2/C1=C\c1ccc(S(C)=O)cc1` (configuration not stated), the signal change (36 h minus 0 h) in test [1] is -0.106. Further, in test [2], the SMN1 luciferase ratio worked out at 0.95 and the SMN2 luciferase ratio was found to be 0.91. Further, in test [3], the normalised LDH release came out at 0.76.

On to `O=C1CCC(N2C(=O)c3ccccc3C2=O)C(=O)N1` (configuration not stated), for which the signal change (36 h minus 0 h) in test [1] amounted to 0.19. In test [2], the SMN1 luciferase ratio came to 0.91 and the SMN2 luciferase ratio worked out at 0.9. For the same compound, in test [3], the normalised LDH release worked out at 0.872.

In test [1], `O=C(N[C@H](CO)[C@H](O)c1ccc([N+](=O)[O-])cc1)C(Cl)Cl` gave a signal change (36 h minus 0 h) of 0.0961. Moreover, in test [2], the SMN1 luciferase ratio came out at 0.9 and the SMN2 luciferase ratio turned out to be 0.73. Also, the normalised LDH release in test [3] turned out to be 1.22.

For `CCN(CC)CCOC(=O)C(c1ccccc1)c1ccccc1`, the signal change (36 h minus 0 h) in test [1] was found to be 0.106. In addition, in test [2], the SMN1 luciferase ratio turned out to be 0.92 and the SMN2 luciferase ratio is 1.02. This compound had a normalised LDH release in test [3] of 0.975.

`O=C1OC(c2ccc(O)cc2)(c2ccc(O)cc2)c2ccccc21`: in test [1], the signal change (36 h minus 0 h) is 0.124. Besides, in test [2], the SMN1 luciferase ratio was 0.98 and the SMN2 luciferase ratio turned out to be 0.89. For the same compound, the normalised LDH release in test [3] turned out to be 0.834.

In the case of `NCCCC[C@H](N[C@@H](CCc1ccccc1)C(=O)O)C(=O)N1CCC[C@H]1C(=O)O`, in test [1], the signal change (36 h minus 0 h) was found to be 0.312. Also, in test [2], the SMN1 luciferase ratio was determined as 0.96 and the SMN2 luciferase ratio came out at 0.95. For the same compound, the normalised LDH release in test [3] was 0.898.

In test [1], `Cc1noc(NS(=O)(=O)c2ccc(N)cc2)c1C` registered a signal change (36 h minus 0 h) of 0.106. Besides, in test [2], the SMN1 luciferase ratio turned out to be 0.9 and the SMN2 luciferase ratio came out at 0.94. In test [3], the normalised LDH release stood at 0.499.

Turning to `CC(C)(C)NCC(O)c1ccc(O)c(CO)c1` (configuration not stated), in test [1], the signal change (36 h minus 0 h) came to 0.37. In addition, in test [2], the SMN1 luciferase ratio was found to be 1 and the SMN2 luciferase ratio was determined as 0.89. The normalised LDH release in test [3] was 0.429.

Regarding `Nc1ncnc2c1ncn2[C@@H]1O[C@H](CO)[C@@H](O)[C@@H]1O`, the signal change (36 h minus 0 h) in test [1] was 0.0898. Besides, in test [2], the SMN1 luciferase ratio was 0.81 and the SMN2 luciferase ratio was 0.8. In test [3], the normalised LDH release is 1.1.

`CCCN(CCC)S(=O)(=O)c1ccc(C(=O)O)cc1` came in with a signal change (36 h minus 0 h) in test [1] of 0.147. For the same compound, in test [2], the SMN1 luciferase ratio was found to be 0.89 and the SMN2 luciferase ratio worked out at 0.99. The compound also gave a normalised LDH release in test [3] of 0.9.

On to `O=C1CC2(CCCC2)CC(=O)N1CCCCN1CCN(c2ncccn2)CC1`, for which the signal change (36 h minus 0 h) in test [1] worked out at 0.0678. Further, in test [2], the SMN1 luciferase ratio came out at 0.96 and the SMN2 luciferase ratio was determined as 0.88. In test [3], this compound came in with a normalised LDH release of 0.881.

With `CCN(CCCc1ccccc1)CCCc1ccccc1` (tested in a mixture with another compound), the signal change (36 h minus 0 h) in test [1] turned out to be 0.113. In addition, in test [2], the SMN1 luciferase ratio was 0.88 and the SMN2 luciferase ratio was determined as 0.87. Further, the normalised LDH release in test [3] came out at 0.573.

In test [1], `CCCOc1ccccc1-c1nc2n[nH]nc2c(=O)[nH]1` displayed a signal change (36 h minus 0 h) of 0.149. Further, in test [2], the SMN1 luciferase ratio worked out at 0.92 and the SMN2 luciferase ratio was 0.92. Also, the normalised LDH release in test [3] amounted to 0.974.

Compound `CC(=O)N[C@@H](CC(=O)O)C(=O)N[C@@H](CCC(=O)O)C(=O)O` (Ac-Asp-Glu-OH) displayed a signal change (36 h minus 0 h) in test [1] of 0.0039. Moreover, in test [2], the SMN1 luciferase ratio was found to be 0.94 and the SMN2 luciferase ratio amounted to 0.88. The same compound displayed a normalised LDH release in test [3] of 1.07.

Compound `COc1c(OC)c2occc2c2oc(=O)ccc12` came in with a signal change (36 h minus 0 h) in test [1] of 0.303. Also, in test [2], the SMN1 luciferase ratio was determined as 0.81 and the SMN2 luciferase ratio was 0.9. The same compound had a normalised LDH release in test [3] of 0.943.

In the case of `CC(=O)[C@@]1(O)CCC2C3C[C@H](C)C4=CC(=O)C=CC4(C)[C@@]3(F)[C@@H](O)C[C@@]21C` (some centres not stated), the signal change (36 h minus 0 h) in test [1] worked out at 0.124. Besides, in test [2], the SMN1 luciferase ratio turned out to be 0.88 and the SMN2 luciferase ratio is 0.92. The compound also gave a normalised LDH release in test [3] of 0.611.

Compound `OCC(O)CN1CCN(c2ccccc2)CC1` (configuration not stated) came in with a signal change (36 h minus 0 h) in test [1] of 0.178. In addition, in test [2], the SMN1 luciferase ratio was 0.89 and the SMN2 luciferase ratio came to 0.92. In test [3], this compound yielded a normalised LDH release of 0.963.

On to `CN=C(NC#N)NCCSCc1nc[nH]c1C`, for which the signal change (36 h minus 0 h) in test [1] stood at 0.144. Further, in test [2], the SMN1 luciferase ratio is 0.87 and the SMN2 luciferase ratio was 0.88. The compound also gave a normalised LDH release in test [3] of 0.95.

In turn, `Cc1cccc(Nc2ccccc2C(=O)O)c1C` displayed a signal change (36 h minus 0 h) in test [1] of 0.193. Also, in test [2], the SMN1 luciferase ratio is 0.92 and the SMN2 luciferase ratio was 0.92. The normalised LDH release in test [3] stood at 0.894.

As to `NC(Cc1cc(I)c(Oc2ccc(O)c(I)c2)c(I)c1)C(=O)O` (configuration not stated), the signal change (36 h minus 0 h) in test [1] worked out at 0.0592. Besides, in test [2], the SMN1 luciferase ratio was found to be 0.81 and the SMN2 luciferase ratio amounted to 0.85. In test [3], this compound registered a normalised LDH release of 1.09.

For `Cn1nnnc1SCC1=C(C(=O)O)N2C(=O)C(NC(=O)C(OC=O)c3ccccc3)C2SC1` (configuration not stated), the signal change (36 h minus 0 h) in test [1] amounted to 0.078. Also, in test [2], the SMN1 luciferase ratio is 0.94 and the SMN2 luciferase ratio was determined as 0.84. For the same compound, in test [3], the normalised LDH release was determined as 0.864.

On to `CCc1cc(C(N)=S)ccn1`, for which the signal change (36 h minus 0 h) in test [1] amounted to 0.0364. In test [2], the SMN1 luciferase ratio was 0.92 and the SMN2 luciferase ratio came out at 0.93. The compound also registered a normalised LDH release in test [3] of 1.05.

`CCN(CC)CCNC(=O)c1cc(S(C)(=O)=O)ccc1OC` registered a signal change (36 h minus 0 h) in test [1] of 0.066. Moreover, in test [2], the SMN1 luciferase ratio was found to be 0.91 and the SMN2 luciferase ratio is 1.01. Besides, in test [3], the normalised LDH release amounted to 0.984.

As to `COc1ccc2c3c1O[C@H]1C[C@@H](O)C=C[C@@]31CCN(C)C2`, in test [1], the signal change (36 h minus 0 h) came out at 0.135. In test [2], the SMN1 luciferase ratio came to 0.94 and the SMN2 luciferase ratio came to 0.91. Further, the normalised LDH release in test [3] was 1.13.

In test [1], `O=C(Cc1cccs1)NC1C(=O)N2C(C(=O)[O-])=C(C[n+]3ccccc3)CSC12` (configuration not stated) showed a signal change (36 h minus 0 h) of 0.198. Further, in test [2], the SMN1 luciferase ratio was determined as 0.91 and the SMN2 luciferase ratio was 0.85. Besides, the normalised LDH release in test [3] worked out at 1.

On to `COc1ccc2[nH]cc(CCNC(C)=O)c2c1`, for which, in test [1], the signal change (36 h minus 0 h) turned out to be 0.135. Moreover, in test [2], the SMN1 luciferase ratio was determined as 0.92 and the SMN2 luciferase ratio was determined as 0.84. Further, the normalised LDH release in test [3] was 0.997.

`COc1c(C)c2c(c(O)c1C/C=C(\C)CCC(=O)O)C(=O)OC2` displayed a signal change (36 h minus 0 h) in test [1] of 0.0252. Further, in test [2], the SMN1 luciferase ratio amounted to 0.31 and the SMN2 luciferase ratio worked out at 0.48. The normalised LDH release in test [3] was 0.658.
